Here are results for 5 molecules from article PMC9174988.

Sequences of proteins named here, by UniProt entry; tags and fusion partners are left off.
UniProt P61264: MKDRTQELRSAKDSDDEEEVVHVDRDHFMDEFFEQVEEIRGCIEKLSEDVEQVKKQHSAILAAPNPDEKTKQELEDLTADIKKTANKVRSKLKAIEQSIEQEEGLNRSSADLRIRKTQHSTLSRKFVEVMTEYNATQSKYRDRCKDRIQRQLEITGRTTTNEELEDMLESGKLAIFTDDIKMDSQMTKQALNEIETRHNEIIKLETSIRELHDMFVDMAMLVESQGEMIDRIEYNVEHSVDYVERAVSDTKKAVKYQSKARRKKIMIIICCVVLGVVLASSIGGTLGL
UniProt Q8BVE3: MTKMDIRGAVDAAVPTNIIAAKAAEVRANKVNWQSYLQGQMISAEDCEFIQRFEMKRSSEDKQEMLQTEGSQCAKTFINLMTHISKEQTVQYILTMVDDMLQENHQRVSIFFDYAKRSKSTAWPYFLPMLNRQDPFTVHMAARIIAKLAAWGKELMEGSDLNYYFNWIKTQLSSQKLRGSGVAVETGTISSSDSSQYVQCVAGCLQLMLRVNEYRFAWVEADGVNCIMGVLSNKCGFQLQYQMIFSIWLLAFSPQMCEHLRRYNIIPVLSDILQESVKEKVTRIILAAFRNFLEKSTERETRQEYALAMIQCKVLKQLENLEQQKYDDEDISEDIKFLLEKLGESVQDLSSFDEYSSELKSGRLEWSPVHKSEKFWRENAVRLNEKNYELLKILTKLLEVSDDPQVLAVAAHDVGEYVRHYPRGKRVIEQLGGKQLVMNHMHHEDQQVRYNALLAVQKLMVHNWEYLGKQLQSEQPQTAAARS

Results are given in words; binding and its absence hold for the method and conditions named. In cells and extracts the contact can be indirect. Here binding means that the protein was enriched with, or labelled near, the bait; the list need not be complete. For part of these data: A no says only that the protein was not detected with the bait.

One assay addresses T1, CLN6-BioID (UniProt Q9NWW5).
T1 sequence: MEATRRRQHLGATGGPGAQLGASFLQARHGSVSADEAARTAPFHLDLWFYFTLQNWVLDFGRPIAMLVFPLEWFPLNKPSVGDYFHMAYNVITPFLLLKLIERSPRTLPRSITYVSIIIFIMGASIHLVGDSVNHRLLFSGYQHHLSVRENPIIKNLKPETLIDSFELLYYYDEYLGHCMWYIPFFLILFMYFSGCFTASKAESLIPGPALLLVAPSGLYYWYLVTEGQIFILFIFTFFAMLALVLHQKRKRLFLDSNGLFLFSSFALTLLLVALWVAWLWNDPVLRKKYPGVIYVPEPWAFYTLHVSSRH
The assay is described as follows: proximity labelling; proximity-dependent biotin identification (BioID) screens with CLN3, CLN6 and CLN8 as baits in neuroblastoma cells.

The target of a further assay is T2, CLN3-BioID (UniProt Q13286).
T2 sequence: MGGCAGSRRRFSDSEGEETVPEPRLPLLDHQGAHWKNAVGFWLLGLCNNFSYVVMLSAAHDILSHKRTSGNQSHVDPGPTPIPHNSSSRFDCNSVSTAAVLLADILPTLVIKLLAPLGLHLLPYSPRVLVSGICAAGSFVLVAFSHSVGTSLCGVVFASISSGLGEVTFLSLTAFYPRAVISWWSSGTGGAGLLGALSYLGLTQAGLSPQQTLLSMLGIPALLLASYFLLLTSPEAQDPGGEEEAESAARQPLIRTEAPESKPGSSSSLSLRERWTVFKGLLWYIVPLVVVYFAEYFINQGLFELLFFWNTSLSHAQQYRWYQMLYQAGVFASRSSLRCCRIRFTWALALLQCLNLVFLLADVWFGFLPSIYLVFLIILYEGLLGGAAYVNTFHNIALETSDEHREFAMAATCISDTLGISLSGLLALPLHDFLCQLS
Described as above.

Take “STX1B (in neuroblastoma cells) (from UniProt P61264 1-288)”: the binding result in the assay with CLN6-BioID and with CLN3-BioID was “binds” throughout. With “ATPase H+ Transporting V1 Subunit H (in neuroblastoma cells) (from UniProt Q8BVE3 1-483)”, the binding result with CLN6-BioID and with CLN3-BioID was “binds” each time.

For “mammalian uncoordinated-18 (in neuroblastoma cells)”, the binding entry with CLN6-BioID and with CLN3-BioID was “binds” throughout.

B1: CLN6-BioID (protein, UniProt Q9NWW5 1-311)
chain: T1 sequence
B1: the binding entry with CLN3-BioID was “no binding”.

B2: Synaptobrevin homolog YKT6 (in neuroblastoma cells) (protein, UniProt Q9CQW1 1-198)
chain: MKLYSLSVLYKGDPKAVLLKAAYDVSSFSFFQRSSVQEFMTFTSQLIVERSGKGSRASVKEQEYLCHVYVRSDSLAGVVIADSEYPSRVAFTLLEKVLDEFSKQVDRIDWPVGSPATIQYTGLDDHLSKYQNPREADPMSKVQAELDETKIILHNTMESLLERGEKLDDLVSKSEVLGTQSKAFYKTARKQNSCCAIM
With B2, the binding result with CLN6-BioID and in the assay with CLN3-BioID was “binds” each time.
